According to patent publication US20230398106A1, “COMBINATION THERAPY OF DONEPEZIL AND SILDENAFIL FOR THE TREATMENT OF ALZHEIMER'S DISEASE OR COGNITIVE IMPAIRMENT” (NEURORIVE INC, priority 2020, published 2023):

Test system: mouse brain slice treated with 3 μM amyloid beta (Aβ)
Conditions: Amyloid beta 3 μM; Donepezil 100 nM single treatment

Compound: COc1cc2c(cc1OC)C(=O)C(CC1CCN(Cc3ccccc3)CC1)C2 (stereo not shown) [Donepezil, donepezil]
- Synaptic long-term potentiation (Increase or decrease compared to Amyloid beta group): 9.18%
